# Cleaved PARP after 72 h of treatment

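Human melanoma cell lines in 1,536-well plates were treated with a pair of drugs for 72 h, then fixed, stained and imaged. Each value is the cleaved-PARP-positive fraction of nuclei relative to DMSO-treated wells, in %, so that 100 equals the control and higher values mean more apoptosis. Every drug was used at one fixed concentration, the higher of two screened. The file gives one value for each pair and line, without errors, so small differences may be noise. The marker varies much from line to line, for technical or biological reasons.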
This is part of the screen, not chosen by result.
A dash means that no value is listed here.

First drug in all entries: stibogluconate, 10000 nM, O=C(O)[C@@H]1[O][Sb](=[O])([O][Sb]2(=[O])[O][C@H]([C@H](O)CO)[C@H](O)[C@H](C(=O)O)[O]2)[O][C@H]([C@H](O)CO)[C@@H]1O (some centres unmarked)

Drug key:
GW9662 (10000 nM): O=C(Nc1ccccc1)c1cc([N+](=O)[O-])ccc1Cl
cediranib (2000 nM): COc1cc2c(Oc3ccc4[nH]c(C)cc4c3F)ncnc2cc1OCCCN1CCCC1
sunitinib (2000 nM): CCN(CC)CCNC(=O)c1c(C)[nH]c(/C=C2\C(=O)Nc3ccc(F)cc32)c1C
everolimus (100 nM): CO[C@H]1C[C@@H]2CC[C@@H](C)[C@@](O)(O2)C(=O)C(=O)N2CCCC[C@H]2C(=O)O[C@H]([C@H](C)C[C@@H]2CC[C@@H](OCCO)[C@H](OC)C2)CC(=O)[C@H](C)/C=C(\C)[C@@H](O)[C@@H](OC)C(=O)[C@H](C)C[C@H](C)/C=C/C=C/C=C/1C
PD173074 (500 nM): CCN(CC)CCCCNc1ncc2cc(-c3cc(OC)cc(OC)c3)c(NC(=O)NC(C)(C)C)nc2n1
fingolimod (10000 nM): CCCCCCCCc1ccc(CCC(N)(CO)CO)cc1
temozolomide (10000 nM): Cn1nnc2c(C(N)=O)ncn2c1=O
tanespimycin (10 nM): C=CCNC1=C2C[C@@H](C)C[C@H](OC)[C@H](O)[C@@H](C)/C=C(\C)[C@H](OC(N)=O)[C@@H](OC)/C=C\C=C(/C)C(=O)NC(=CC1=O)C2=O
GW2580 (5000 nM): COc1ccc(COc2ccc(Cc3cnc(N)nc3N)cc2OC)cc1
vatalanib (10000 nM): Clc1ccc(Nc2nnc(Cc3ccncc3)c3ccccc23)cc1
NVP-TAE684 (400 nM): COc1cc(N2CCC(N3CCN(C)CC3)CC2)ccc1Nc1ncc(Cl)c(Nc2ccccc2S(=O)(=O)C(C)C)n1
vismodegib (5000 nM): CS(=O)(=O)c1ccc(C(=O)Nc2ccc(Cl)c(-c3ccccn3)c2)c(Cl)c1
crizotinib (1000 nM): C[C@@H](Oc1cc(-c2cnn(C3CCNCC3)c2)cnc1N)c1c(Cl)ccc(F)c1Cl
nutlin-3 (500 nM): COc1ccc(C2=N[C@@H](c3ccc(Cl)cc3)[C@@H](c3ccc(Cl)cc3)N2C(=O)N2CCNC(=O)C2)c(OC(C)C)c1
selumetinib (75 nM): Cn1cnc2c(F)c(Nc3ccc(Br)cc3Cl)c(C(=O)NOCCO)cc21
fludarabine (1000 nM): Nc1nc(F)nc2c1ncn2[C@@H]1O[C@H](CO)[C@@H](O)[C@@H]1O
KU-0063794 (100 nM): COc1ccc(-c2ccc3c(N4CCOCC4)nc(N4C[C@@H](C)O[C@@H](C)C4)nc3n2)cc1CO
dasatinib (20 nM): Cc1nc(Nc2ncc(C(=O)Nc3c(C)cccc3Cl)s2)cc(N2CCN(CCO)CC2)n1
ruxolitinib (5000 nM): N#CC[C@H](C1CCCC1)n1cc(-c2ncnc3[nH]ccc23)cn1
MK-2206 (2000 nM): NC1(c2ccc(-c3nc4ccn5c(=O)[nH]nc5c4cc3-c3ccccc3)cc2)CCC1
GW0742 (10000 nM): Cc1cc(SCc2sc(-c3ccc(C(F)(F)F)c(F)c3)nc2C)ccc1OCC(=O)O
SNS-314 (4 nM): O=C(Nc1cccc(Cl)c1)Nc1ncc(CCNc2ncnc3ccsc23)s1
BI-D1870 (1000 nM): CC(C)CCN1c2nc(Nc3cc(F)c(O)c(F)c3)ncc2N(C)C(=O)C1C (centres unmarked)
AS-252424 (5000 nM): O=C1NC(=O)/C(=C/c2ccc(-c3ccc(F)cc3O)o2)S1
NVP-BEZ235 (20 nM): Cn1c(=O)n(-c2ccc(C(C)(C)C#N)cc2)c2c3cc(-c4cnc5ccccc5c4)ccc3ncc21
darinaparsin (2000 nM): C[As](C)SC[C@H](NC(=O)CC[C@H](N)C(=O)O)C(=O)NCC(=O)O
dovitinib (500 nM): CN1CCN(c2ccc3nc(-c4c(N)c5c(F)cccc5[nH]c4=O)[nH]c3c2)CC1
lapatinib (4000 nM): CS(=O)(=O)CCNCc1ccc(-c2ccc3ncnc(Nc4ccc(OCc5cccc(F)c5)c(Cl)c4)c3c2)o1
embelin (6000 nM): CCCCCCCCCCCC1=C(O)C(=O)C=C(O)C1=O

Partner | MZ2-MEL | UACC-62 | A2058 | C32 | COLO 800 | WM1716 | SK-MEL-5
lapatinib | 177 | 248 | 205 | 788 | 89.5 | 82.3 | 100
AS-252424 | 107 | 149 | 119 | 92.7 | 99.3 | 21.1 | 282
fludarabine | 35.8 | 91.3 | 127 | 54.7 | 80.3 | 107 | 2510
cediranib | 92.6 | 89.6 | 86.5 | 94.6 | 121 | 209 | 77.8
NVP-BEZ235 | - | 200 | 127 | 208 | 96.7 | 33.6 | 270
MK-2206 | 81.9 | 228 | 53.4 | 157 | 72.4 | 53.3 | 220
KU-0063794 | 60.6 | 100 | 85.5 | 99.5 | 68.6 | 107 | 73.5
vismodegib | 121 | 211 | 114 | 37.5 | 147 | 55.5 | 82.7
selumetinib | 229 | 280 | 116 | 108 | 28.2 | 246 | 276
GW2580 | 68.1 | 33.4 | 124 | 80.6 | 135 | 137 | 98.2
dovitinib | 165 | 32.1 | 1050 | 110 | 126 | 57.8 | 245
sunitinib | 174 | 85.2 | 186 | 118 | 37.0 | 61.3 | 644
dasatinib | 230 | 86.0 | 181 | 622 | 173 | 189 | 46.4
SNS-314 | 203 | 98.5 | 330 | 55.5 | 141 | 26.7 | 55.0
crizotinib | 64.0 | 127 | 81.5 | 184 | 54.7 | 55.1 | 74.5
ruxolitinib | 138 | 101 | 161 | 154 | 24.4 | 306 | 68.2
nutlin-3 | 90.8 | 163 | 97.0 | 196 | 113 | 94.1 | 179
PD173074 | 65.4 | 40.0 | 188 | 75.6 | 180 | 178 | 80.0
GW9662 | 139 | 165 | 93.0 | 84.6 | 154 | 86.5 | 55.3
vatalanib | 31.4 | 226 | 276 | 171 | 191 | 109 | 218
temozolomide | 75.2 | 199 | 558 | 134 | 155 | 443 | 66.3
fingolimod | 61.1 | 577 | 792 | 713 | 157 | 15000 | 41.8
GW0742 | 38.4 | 201 | 99.1 | 70.1 | 118 | 40.6 | 30.4
tanespimycin | 95.9 | 251 | 273 | 69.2 | 85.2 | 66.2 | 84.0
embelin | 42.2 | 108 | 78.8 | 81.3 | 55.7 | 171 | 134
everolimus | 65.3 | 331 | 164 | 222 | 84.6 | 76.8 | 159
BI-D1870 | 50.8 | 118 | 77.2 | 146 | 151 | 260 | 32.4
darinaparsin | 85.4 | 125 | 109 | 110 | 69.4 | 193 | 44.5
NVP-TAE684 | 107 | 242 | 184 | 104 | 148 | 31.6 | 84.8

The first 4 entries again:

Partner,MZ2-MEL,UACC-62,A2058,C32,COLO 800,WM1716,SK-MEL-5
lapatinib,177,248,205,788,89.5,82.3,100
AS-252424,107,149,119,92.7,99.3,21.1,282
fludarabine,35.8,91.3,127,54.7,80.3,107,2510
cediranib,92.6,89.6,86.5,94.6,121,209,77.8

Values as published with doi:10.1371/journal.pone.0140310, rounded.